Experiment: soluble on expression in E. coli; label from the status in PepcDB or PDB records

Sequence	soluble on expression in E. coli
MMEPVEECDENVGAFQWQQASETLTAIRQRFGFALETADQEDQARAVRFTWSLKKTSMLEPDEILKEIQKVLESYGIDYEQQKRYLLRCSHVDPLTDASVKWDIEVCTLPRLYLNGVHFQRISGSSSDFKNITTKISEELDI	not soluble
MSIMRTRTLQEVFEESKLVISQLTEEEIHEFKEAFLLFDKDGNGTISIKELGVAMRALGQNPTEQQMMEIIHDVDLDGNGQVEFPEFCVMMKRIMKETDSEMIREAFKIFDRDGNGVITANEFKLFMINMGMCFDEVEVEEMMNEVDCDGNGEIDYEEFVKIFS	not soluble
MVAITTAASRLGVAPYNESRPVELRPDFSLDDAKMVIRAVYRQVLGNDYIMDSERLKGAESLLTNGSISVREFVRTVAKSELYKKKFLYNNFQTRVIELNYKHLLGRAPFSEDEVIFHLDLYENQGFDADIDSYIDSVEYQENFGENIVPYYRFNNQVGDRTVGFTRMFRLYRGYANSDRSQLERSSSRLATELGQNTVSAIVGPSGSNAGWAYRPSRAGNTPAKALGGTVPFGQASKLFRVEITAISAPGYPKVRRSNKAVIVPFEQLNQTLQQINRLGGKVASITPASLSLEHHHHHH	not soluble
GPGSMVALRADMDALPEDEETDLPFKSQNKGAMHARGHEAHTAMLRSAAKVICARQADIEGSVRFIFQHAEELLPGGAKDLVAAGVMEGVKNIFGMHCSPRCEAGTVGLIPGINTSYADSFKLIIRGRGDHASTPQLLVDPVPITAEIVMAIQTITARKIDPRVVPVVSITTMTTGSSESHNVIPNEVKLMGTEWARDKAVREQVLRDIERIASNIAAAHGAAATSDFTFGHDCCDNDPEVTAQVRCIGERILGSANIIDPKAPLYGGEDFSAYQLEKPGCFLWLGTADKSQGICEMCHSTKFRVDETALPVGVSFHVGYVYDNVMA	not soluble
MGHHHHHHSHMKSLILPPEHILKRGDSEAIAYAFFHLQHWKQIEGALNLLQCTWEGTFRMIPYPLEKGHLFYPYPSCTETADRELLPTFHHVSVYPKKELPLFIHFTAGFCSSTAMIAILTHQFPEIMGIFAKAVLGLWCPQPWASSGFEENTQDLKSEDLGLSSG	not soluble
MGHHHHHHSHMETESGSVAQAGVQWHNLGSLQPPPSRLKQLSYLSLPSSWDYRCTPPHPANFLYFNRDGISPCCPGWSPTPKLTQSTHLGLSKC	not soluble
MGHHHHHHSHAPHKHGFLEGRHAELCFLDVIPFWKLDLDQDYRVTCFTSWSPCFSCAQEMAKFISKNKHVSLCIFTARIYDDQGRCQEGLRTLAEAGAKISIMTYSEFKHCWDTFVDHQGCPFQPWDGLDEHSQDLSGRLRAILQNQEN	not soluble
MSSYPSSGRRRPITRSEAEERALDKISREAEARMKLKRETREQARQGRYQLLEKKVEEDAEAYRHDTADKVIELQDRVQQVMFLYSQLDNEKSTLLYEVDLLKDELEEKDASLNLSSRECRDLTSEVKALKRTIDALHASQQQLKQEISQRDQLIQENGLCLVEEDPDDEGSESTNNASGEIRSGPYLFKRETIRLVDRVVPGAASLDDKIQKLVDTNKKMRKDYEELEQTIYTQRHARNARDSANVIPNQGVDDVNKDAAKQLAEMKLKMQDLERENTNQQGNVIRMEGQMKRYKSNADVAEKELDELKTQMRQTKKELRDKENALDEQKETNKHLQSRLEKMRMQRTGRPL	not soluble
MSADVERVLIQLQDEAGEVLGSPFDVPLDISPDKLQLVCNALLQKEEPVPFLFFVKDAELVSSLGSCIQTLGLETEQVLPVVYQPQAVFRVRAVARCTSSLEGHTEAVISVAFSPTGKYLASGSGDTTVRFWDLSTETPHHTSRGHTHWVLSIAWSPDGKKLASGCKNSQIFLWDPVTGKQIGKTLTGHTKWITWLCWEPLHLNPECRYLASTSKDCTIRIWDTVLGRYDKILTGHTHSVTCVKWGGDGLLYTSSQDRTIKVWRAKDGVQCRTLQGHAHWVNTLALSTDYVLRTGAFEPANATINPQDLTGSLEEIKEKALKRYNSVRGEGHERLVSGSDDFTMFLWNPAEDKKPVARLTGHQALVNEVLFSPDTRLIASASFDKSIKIWDGKTGKYLNSLRGHVGPVYQVAWSADSRLLVSGSSDSTLKVWDIKTGKLNADLPGHADEVFAVDWSPDGQRVASGGKDKCLRIWRK	soluble
ARHCGHCPEEWITYSNSCYYIGKERRTWEESLLACTSKNSSLLSIDNEEEMKFLSIISPSSWIGVFRNSSHHPWVTMNGLAFKHEIKDSDNAELNCAVLQVNRLKSAQCGSSIIYHCKHK	soluble
APQQINDIVHRTITPLIEQQKIPGMAVAVIYQGKPYYFTWGYADIAKKQPVTQQTLFELGSVSKTFTGVLGGDAIARGEIKLSDPTTKYWPELTAKQWNGITLLHLATYTAGGLPLQVPDEVKSSSDLLRFYQNWQPAWAPGTQRLYANSSIGLFGALAVKPSGLSFEQAMQTRVFQPLKLNHTWINVPPAEEKNYAWGYREGKAVHAAAVSPGALDAEAYGVKSTIEDMARWVQSNLKPLDINEKTLQQGIQLAQSRYWQTGDMYQGLGWEMLDWPVNPDSIINGSDNKIALAARPVKAITPPTPAVRASWVHKTGATGGFGSYVAFIPEKELGIVMLANKNYPNPARVDAAWQILNALQ	soluble
MGGSHHHHHHGMASALMLPYPSALGDQYWEEILLPKNGENVETMKKLTQNHKAKGLPSNDTDCPQKKEGKAQIVVPVTFRDVTVIFTEAEWKRLSPEQRNLYKEVMLENYRNLLSLGQEIETILANIVKSHLY	not soluble
MSLKIAIEGCAHGELEKIYDLIGSIQEEQNITVDLLICCGDFQSTRNLQDLQCMAVPQKHLDMCSFYKYYSGEKKAPILTLFIGGNHEASNYLQELPYGGWVAPNIYYLGYAGVVDCNGIRIGGISGIYKGHDFLKGRFEFPPYDEGSKRSVYHQRQIDVFRLKQLSPGVDIMLSHDWPRGITRHGNETQLLRFKPAFREDIESNRLGSMPCEELLRKLQPPYWFAAHLHCKFAALVEHPGERCTKFLALDKCLPKRRFLQILDIPTAEDEGHHHHHH	not soluble
MAKIPVTVLSGYLGSGKTTLLNHILKNREGRRIAVIVNDMSEVNIDKDLVAQGGGLSRTDEKLVELSNGCICCTLRDDLLREVERLVHKGGIDQIVIESTGISEPVPVAQTFSYIDEELGIDLTSICRLDTMVTVVDANRFVNDIRSEDLLADRDESVDDEDERTIADLLIDQVEFCDVMIINKIDLISDKALEKLENVLRALQPEAKIIKTVNAKVELSDVLNTQLFDFEKASESAGWIKELTAGGHATHTPETEEYGITSFAYTRRLPFHAKRFHQWLEQMPENIVRTKGIVWLAQYNDVACLLSQAGSSCNIHPVTYWVATMSESQQQAILEARQDVVEDWDIEYGDRQTQFVIIGTDLDQEKISRELDACLIHSSEIDEDWRLLDSPYQWTYDRRM	not soluble
THVYNFDVPQDPESYVHRIGRTGRAGKTGMAMTFITPREKSMLRAIEQTTKRKMDRMKEPTLDEALEGQQQVTVERLRTTISENNLNFYMTAAAELLEDHDAVTVVAAAIKMATKEPDDTPVRLTDEAPMVSK	not soluble
MAIAETDTEVHTPFEQDFEKDVAATQRYFDSSRFAGIIRLYTARQVVEQRGTIPVDHIVAREAAGAFYERLRELFAARKSITTFGPYSPGQAVSMKRMGIEAIYLGGWATSAKGSSTEDPGPDLASYPLSQVPDDAAVLVRALLTADRNQHYLRLQMSERQRAATPAYDFRPFIIADAGTGHGGDPHVRNLIRRFVEVGVPGYHIEDQRPGTKKCGHQGGKVLVPSDEQIKRLNAARFQLDIMRVPGIIVARTDAEAANLIDSRADERDQPFLLGATKLDVPSYKSCFLAMVRRFTNWASRSSMVIFSMRLATASTRRPAVGLSAKAFSAWSPTRSTRGGRTASSRSTAFSTRSSRGSWRPGRTTRA	not soluble
KVKLKKEIVTLGVEGIDPRHVVGTYVKPQDWNDLIADPEVFVVDTRNDYEIEIGTFKGAVNPNTETFREFPDYVKENMDPAKHKKVAMFCTGGIRCEKSTAYMKEQGFEEVYHLEGGILKYLEEVPQEESMWEGDCYVFDGRVAVNHQLEKA	not soluble

From the DeepSol protein solubility set
